{"source": "the supplement of paper PMC8256030", "note": "Where “and” joins values, the source holds several entries; their conditions need not be identical. Equal entries are not always repeated. Structures can show the parent of a compound that is named as a salt. This is one part of the list. Repeats in this data set agree poorly, so a single value says little.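 HEK293T cells were given each compound shortly before transfection with a reporter in which red mCherry is followed by the SARS-CoV-2 frameshift element and then GFP in the −1 frame, so GFP appears only after frameshifting.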"}
{"system": "HEK293T", "assay": "percent viability (nuclei count) relative to control; higher = more viable cells", "conditions": "10 µM; 24 h"}
{"smiles": "Nc1ccc(S(=O)(=O)NC(=O)c2ccccc2)cc1", "note": "[sulfabenzamide]", "percent viability": "133%"}
{"smiles": "Cc1cnc(NC(=O)C2=C(O)c3ccccc3S(=O)(=O)N2C)s1", "percent viability": "360%"}
{"smiles": "Cc1cc(=O)oc2cc(OS(=O)(=O)O)c(OS(=O)(=O)O)cc12", "note": "[sulmarin]", "percent viability": "305%"}
{"smiles": "CC[C@H]1OC(=O)C[C@@H](O)[C@H](C)[C@@H](O[C@@H]2O[C@H](C)[C@@H](O[C@H]3C[C@@](C)(O)[C@@H](O)[C@H](C)O3)[C@H](N(C)C)[C@H]2O)[C@@H](CC=O)C[C@@H](C)C(=O)/C=C/C(C)=C/[C@@H]1CO[C@@H]1O[C@H](C)[C@@H](O)[C@@H](OC)[C@H]1OC", "note": "[Tylosin]", "percent viability": "164%"}
{"smiles": "CC(C)(N)C(=O)N[C@@H](Cc1c[nH]cn1)C(=O)N[C@H](Cc1ccc2ccccc2c1)C(=O)N[C@H](Cc1ccccc1)C(=O)N[C@@H](CCCCN)C(N)=O", "note": "[ipamorelin]", "percent viability": "18.2%"}
{"smiles": "NCCC(O)(P(=O)(O)O)P(=O)(O)O", "note": "[pamidronic acid]", "percent viability": "242%"}
{"smiles": "CC1(c2ccccc2)CC(=O)N(CN2CCOCC2)C1=O", "note": "(stereo unspecified) [morsuximide]", "percent viability": "205%"}
{"smiles": "OC(CN1CCC(Cc2ccc(F)cc2)CC1)c1ccc(Cl)cc1", "note": "(stereo unspecified) [eliprodil]", "percent viability": "94.5%"}
{"smiles": "O=C(CCCCCCCC(=O)NCCO)NCCO", "note": "[adelmidrol]", "percent viability": "28.2%"}
{"smiles": "CCCCC(F)(F)[C@@]1(O)CC[C@H]2[C@@H](CC(=O)[C@@H]2CCCCCCC(=O)O)O1", "note": "[lubiprostone]", "percent viability": "211%"}
{"smiles": "OC(CCN1CCCCC1)(c1ccccc1)C1CC2C=CC1C2", "note": "(stereo unspecified) [biperiden]", "percent viability": "403%"}
{"smiles": "CN(C)[C@@H]1C(=O)C(C(=O)NCN2CCCC2)=C(O)[C@@]2(O)C(=O)C3=C(O)c4c(O)cccc4[C@@](C)(O)[C@H]3C[C@@H]12", "note": "[Rolitetracycline]", "percent viability": "339%"}
{"smiles": "C=CS(=O)(=O)O", "note": "[apolate]", "percent viability": "109%"}
{"smiles": "O=C(O)CN(CCN(CC(=O)O)CC(=O)O)CC(=O)O", "note": "[edetic acid]", "percent viability": "302%"}
{"smiles": "Nc1ncnc(Nc2ccc(Cl)cc2)n1", "percent viability": "399%"}
{"smiles": "NCCCC[C@H](N[C@@H](CCc1ccccc1)C(=O)O)C(=O)N1CCC[C@H]1C(=O)O", "percent viability": "155%"}
{"smiles": "O=C(O)C1(C(=O)O)CCC1.[NH2-].[NH2-].[Pt+2]", "note": "[Carboplatin]", "percent viability": "240%"}
{"smiles": "CC(CCc1ccccc1)NCC(O)c1ccc(O)c(C(N)=O)c1", "note": "(stereo unspecified) [labetalol]", "percent viability": "221%"}
{"smiles": "N[C@H](C(=O)O)c1ccc(O)cc1", "note": "[oxfenicine]", "percent viability": "198%"}
{"smiles": "CCC(=O)OCC(=O)[C@@]1(OC(=O)CC)[C@@H](C)C[C@H]2[C@@H]3CCC4=CC(=O)C=C[C@]4(C)[C@@]3(F)[C@@H](O)C[C@@]21C", "percent viability": "185%"}
{"smiles": "C/C=C(/C)C(=O)O[C@H]1[C@H](OC(C)=O)[C@@]2(CO)C(CC1(C)C)C1=CCC3[C@@]4(C)CCC(O[C@@H]5O[C@H](C(=O)O)[C@@H](O[C@@H]6O[C@H](CO)[C@@H](O)[C@H](O)[C@H]6O)[C@H](O)[C@H]5O[C@@H]5O[C@H](CO)[C@@H](O)[C@H](O)[C@H]5O)[C@](C)(CO)C4CC[C@@]3(C)[C@]1(C)C[C@H]2O.C/C=C(\\C)C(=O)O[C@H]1[C@H](OC(C)=O)[C@@]2(CO)C(CC1(C)C)C1=CCC3[C@@]4(C)CCC(O[C@@H]5O[C@H](C(=O)O)[C@@H](O[C@@H]6O[C@H](CO)[C@@H](O)[C@H](O)[C@H]6O)[C@H](O)[C@H]5O[C@@H]5O[C@H](CO)[C@@H](O)[C@H](O)[C@H]5O)[C@](C)(CO)C4CC[C@@]3(C)[C@]1(C)C[C@H]2O", "note": "(stereo partly specified)", "percent viability": "134%"}
{"smiles": "CCCCC(=O)N(Cc1ccc(-c2ccccc2-c2nnn[nH]2)cc1)[C@H](C(=O)O)C(C)C", "note": "[valsartan]", "percent viability": "58.7%"}
{"smiles": "Nc1nc(=O)c2nc(CNc3ccc(C(=O)N[C@@H](CCC(=O)O)C(=O)O)cc3)cnc2[nH]1", "percent viability": "277%"}
{"smiles": "CN[C@@H]1[C@@H](O[C@H]2O[C@H](CO)[C@@H](N)[C@H](O)[C@H]2O)OC2C[C@@H](N)[C@@H](O[C@H]3[C@H](O)[C@@H](O)[C@H](N)C[C@@H]3N)OC2[C@@H]1O", "note": "(stereo partly specified) [apramycin]", "percent viability": "228% and 197%"}
{"smiles": "CC[C@]1(O)C[C@H]2CN(CCc3c([nH]c4ccccc34)[C@@](C(=O)OC)(c3cc4c(cc3OC)N(C=O)[C@H]3[C@@](O)(C(=O)OC)[C@H](OC(C)=O)[C@]5(CC)C=CCN6CC[C@]43[C@@H]65)C2)C1", "note": "[Vincristine sulfate]", "percent viability": "24.4%"}
{"smiles": "CNC1(C)C2CCC(C2)C1(C)C", "note": "(stereo unspecified) [mecamylamine]", "percent viability": "141% and 203% and 186%"}
